In assay [1] the target is T1, GST-fused UBL domain of hUBLCP1 (UBLCP1 1-81) (human) (UniProt Q8WVY7).
T1 sequence: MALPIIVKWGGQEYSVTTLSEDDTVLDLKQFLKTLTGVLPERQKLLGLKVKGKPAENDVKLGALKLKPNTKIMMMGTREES
Description: pull-down; GST-fused UBLCP1 1-81 on glutathione-Sepharose 4B; TRX-His6-fused Rpn1 fragments loaded, 1 h at 25°C; eluted with 10 mM reduced glutathione; SDS-PAGE; both purified.

By UniProt entry, the sequences of proteins in these tests, tags left out. Where a name states a change or a piece, a line headed by the entry shows the natural chain unless it says otherwise.
UniProt Q13200: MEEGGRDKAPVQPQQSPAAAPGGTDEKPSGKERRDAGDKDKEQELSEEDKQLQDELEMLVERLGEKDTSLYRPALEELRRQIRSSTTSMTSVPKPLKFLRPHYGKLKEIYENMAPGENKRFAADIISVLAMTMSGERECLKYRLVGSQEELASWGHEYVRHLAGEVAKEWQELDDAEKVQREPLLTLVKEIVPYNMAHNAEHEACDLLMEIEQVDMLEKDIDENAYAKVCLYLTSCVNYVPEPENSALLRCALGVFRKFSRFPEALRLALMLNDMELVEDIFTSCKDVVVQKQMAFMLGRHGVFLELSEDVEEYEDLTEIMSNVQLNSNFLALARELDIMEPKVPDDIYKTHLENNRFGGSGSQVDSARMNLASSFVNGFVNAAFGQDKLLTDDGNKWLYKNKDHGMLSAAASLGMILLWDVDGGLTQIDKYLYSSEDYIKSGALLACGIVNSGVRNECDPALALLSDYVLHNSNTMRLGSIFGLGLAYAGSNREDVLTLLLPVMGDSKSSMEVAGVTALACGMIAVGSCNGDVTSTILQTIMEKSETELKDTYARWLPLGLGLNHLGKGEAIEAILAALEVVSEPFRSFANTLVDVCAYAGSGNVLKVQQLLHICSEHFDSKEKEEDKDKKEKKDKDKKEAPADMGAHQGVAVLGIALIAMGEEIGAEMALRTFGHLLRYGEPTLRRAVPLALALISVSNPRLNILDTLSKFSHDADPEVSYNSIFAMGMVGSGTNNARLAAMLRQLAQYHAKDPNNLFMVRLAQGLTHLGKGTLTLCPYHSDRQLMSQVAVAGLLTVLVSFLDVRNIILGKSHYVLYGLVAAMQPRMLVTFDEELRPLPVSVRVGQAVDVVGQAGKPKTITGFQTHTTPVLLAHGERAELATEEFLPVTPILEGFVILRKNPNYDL

In assay [2] the target is FLAG-tagged Rpn1 of the regulatory particle of the 26 S proteasome, from pYR-FLAG-RPN1 (human) (UniProt Q13200). Nature of the assay: co-IP; lysate of transfected HeLa Tet-Off-derived (EBNA-1) cells; anti-FLAG resin (FLAG-RPN1 precipitated), 0.1% NP-40, 4 h at 4°C; immunoblot with HA and FLAG antibodies. Background: Immunoblotting shows a protein as a band on a membrane.

These are yes or no findings as the source states them, for the method shown. For some assays here: In cells and extracts the contact can be indirect. Some binding calls cover weakened binding; strength is not graded here. Tags and fused reporters may be left off the sequences shown.

As to “TRX-His6-fused Rpn1 regulatory subunit 2 (Rpn1 640-772) (from UniProt Q13200 640-772) (domain or fragment)”, in assay [1], the binding result is “no binding”.

B1: HA-tagged human ubiquitin-like domain-containing C-terminal domain phosphatase (hUBLCP1), from pYR-HA-UBLCP1 (protein, UniProt Q8WVY7 1-318)
chain: MALPIIVKWGGQEYSVTTLSEDDTVLDLKQFLKTLTGVLPERQKLLGLKVKGKPAENDVKLGALKLKPNTKIMMMGTREESLEDVLGPPPDNDDVVNDFDIEDEVVEVENREENLLKISRRVKEYKVEILNPPREGKKLLVLDVDYTLFDHRSCAETGVELMRPYLHEFLTSAYEDYDIVIWSATNMKWIEAKMKELGVSTNANYKITFMLDSAAMITVHTPRRGLIDVKPLGVIWGKFSEFYSKKNTIMFDDIGRNFLMNPQNGLKIRPFMKAHLNRDKDKELLKLTQYLKEIAKLDDFLDLNHKYWERYLSKKQGQ
For the molecule B1, the binding entry in assay [2] was “binds”.

Values taken from PMC3646893, “Solution Structure and Rpn1 Interaction of the UBL Domain of Human RNA Polymerase II C-Terminal Domain Phosphatase” (PLoS ONE, 2013).
